Experimental data from the supplement of paper PMC10849652.
The other results are listed elsewhere or left out.

Chains of the proteins cited; added tags and fusions are not shown. Lines headed by an entry give the natural chain unless they say otherwise; changes in a name come on top.
UniProt Q9ULG1, whole entry, looked up: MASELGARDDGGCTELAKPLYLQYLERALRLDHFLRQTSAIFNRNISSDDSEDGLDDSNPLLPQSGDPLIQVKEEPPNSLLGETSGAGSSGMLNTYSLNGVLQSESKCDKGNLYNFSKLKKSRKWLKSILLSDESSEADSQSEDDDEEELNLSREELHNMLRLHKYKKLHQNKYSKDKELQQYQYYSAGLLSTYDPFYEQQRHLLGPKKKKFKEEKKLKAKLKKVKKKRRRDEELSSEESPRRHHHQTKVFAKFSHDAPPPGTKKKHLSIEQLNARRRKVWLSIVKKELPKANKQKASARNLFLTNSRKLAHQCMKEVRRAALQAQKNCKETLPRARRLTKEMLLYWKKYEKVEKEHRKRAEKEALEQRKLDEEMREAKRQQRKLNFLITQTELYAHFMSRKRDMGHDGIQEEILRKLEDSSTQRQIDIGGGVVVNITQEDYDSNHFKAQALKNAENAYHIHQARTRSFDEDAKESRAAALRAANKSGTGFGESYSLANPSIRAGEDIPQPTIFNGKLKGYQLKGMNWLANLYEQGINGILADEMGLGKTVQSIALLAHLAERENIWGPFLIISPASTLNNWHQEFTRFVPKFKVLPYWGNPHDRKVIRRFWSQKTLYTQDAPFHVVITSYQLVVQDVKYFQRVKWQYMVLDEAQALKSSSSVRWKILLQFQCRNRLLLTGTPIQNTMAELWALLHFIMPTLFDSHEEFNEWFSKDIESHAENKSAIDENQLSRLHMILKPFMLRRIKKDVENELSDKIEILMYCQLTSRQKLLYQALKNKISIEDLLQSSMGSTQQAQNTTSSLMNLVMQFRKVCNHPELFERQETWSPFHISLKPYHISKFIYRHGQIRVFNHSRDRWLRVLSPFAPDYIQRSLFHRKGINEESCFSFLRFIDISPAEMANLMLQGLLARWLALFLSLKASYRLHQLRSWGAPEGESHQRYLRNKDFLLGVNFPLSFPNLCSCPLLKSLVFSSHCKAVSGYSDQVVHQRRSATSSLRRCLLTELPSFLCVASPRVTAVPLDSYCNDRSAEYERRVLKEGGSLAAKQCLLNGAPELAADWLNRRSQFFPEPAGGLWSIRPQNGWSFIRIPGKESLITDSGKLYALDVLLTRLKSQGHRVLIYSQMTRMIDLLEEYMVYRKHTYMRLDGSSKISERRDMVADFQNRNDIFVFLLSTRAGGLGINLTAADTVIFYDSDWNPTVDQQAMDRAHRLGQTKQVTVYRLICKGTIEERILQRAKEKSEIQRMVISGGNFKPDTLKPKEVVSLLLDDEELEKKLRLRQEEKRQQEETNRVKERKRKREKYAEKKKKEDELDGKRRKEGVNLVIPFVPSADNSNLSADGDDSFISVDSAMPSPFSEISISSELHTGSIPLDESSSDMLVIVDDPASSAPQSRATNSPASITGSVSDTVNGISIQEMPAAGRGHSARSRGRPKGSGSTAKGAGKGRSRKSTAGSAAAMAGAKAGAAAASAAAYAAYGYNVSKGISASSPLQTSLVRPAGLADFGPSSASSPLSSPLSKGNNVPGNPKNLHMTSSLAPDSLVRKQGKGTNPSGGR
UniProt Q96F46, whole entry, looked up: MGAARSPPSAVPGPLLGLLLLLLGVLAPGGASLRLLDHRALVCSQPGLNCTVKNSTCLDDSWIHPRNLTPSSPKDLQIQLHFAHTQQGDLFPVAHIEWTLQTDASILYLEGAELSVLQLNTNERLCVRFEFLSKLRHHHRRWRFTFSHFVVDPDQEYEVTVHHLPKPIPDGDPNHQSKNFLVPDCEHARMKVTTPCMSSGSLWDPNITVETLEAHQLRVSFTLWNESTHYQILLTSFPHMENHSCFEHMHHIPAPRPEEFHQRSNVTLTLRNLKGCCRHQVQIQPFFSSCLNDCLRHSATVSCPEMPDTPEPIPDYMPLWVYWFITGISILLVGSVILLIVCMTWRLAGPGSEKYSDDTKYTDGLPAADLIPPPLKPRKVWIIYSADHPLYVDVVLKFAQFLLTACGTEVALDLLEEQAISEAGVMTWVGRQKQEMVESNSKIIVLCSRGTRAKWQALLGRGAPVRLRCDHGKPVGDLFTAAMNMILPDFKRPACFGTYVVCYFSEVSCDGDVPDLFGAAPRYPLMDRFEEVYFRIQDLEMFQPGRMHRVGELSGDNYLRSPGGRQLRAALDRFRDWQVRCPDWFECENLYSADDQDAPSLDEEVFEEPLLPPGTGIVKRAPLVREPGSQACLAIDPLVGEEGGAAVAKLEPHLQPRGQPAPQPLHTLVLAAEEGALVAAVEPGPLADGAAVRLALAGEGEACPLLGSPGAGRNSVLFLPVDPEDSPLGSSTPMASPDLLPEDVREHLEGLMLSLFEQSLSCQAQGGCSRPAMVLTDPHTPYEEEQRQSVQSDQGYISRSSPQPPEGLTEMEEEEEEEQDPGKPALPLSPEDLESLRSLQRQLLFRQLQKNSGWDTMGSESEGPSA
UniProt Q96G21: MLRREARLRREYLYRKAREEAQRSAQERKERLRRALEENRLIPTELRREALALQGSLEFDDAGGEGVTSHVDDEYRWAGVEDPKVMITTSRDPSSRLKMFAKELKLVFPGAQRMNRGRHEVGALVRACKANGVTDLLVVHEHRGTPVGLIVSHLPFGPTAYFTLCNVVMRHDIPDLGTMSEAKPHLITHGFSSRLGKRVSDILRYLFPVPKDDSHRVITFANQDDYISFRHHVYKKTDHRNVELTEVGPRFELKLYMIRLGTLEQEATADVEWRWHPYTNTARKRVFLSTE
IGKV3D-7, A0A0C4DH55, UniProt A0A0C4DH55, whole entry, looked up: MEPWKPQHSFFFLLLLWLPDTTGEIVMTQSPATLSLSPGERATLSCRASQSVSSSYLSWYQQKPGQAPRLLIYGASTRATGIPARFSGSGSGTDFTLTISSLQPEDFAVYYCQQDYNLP
UniProt Q8N6C5: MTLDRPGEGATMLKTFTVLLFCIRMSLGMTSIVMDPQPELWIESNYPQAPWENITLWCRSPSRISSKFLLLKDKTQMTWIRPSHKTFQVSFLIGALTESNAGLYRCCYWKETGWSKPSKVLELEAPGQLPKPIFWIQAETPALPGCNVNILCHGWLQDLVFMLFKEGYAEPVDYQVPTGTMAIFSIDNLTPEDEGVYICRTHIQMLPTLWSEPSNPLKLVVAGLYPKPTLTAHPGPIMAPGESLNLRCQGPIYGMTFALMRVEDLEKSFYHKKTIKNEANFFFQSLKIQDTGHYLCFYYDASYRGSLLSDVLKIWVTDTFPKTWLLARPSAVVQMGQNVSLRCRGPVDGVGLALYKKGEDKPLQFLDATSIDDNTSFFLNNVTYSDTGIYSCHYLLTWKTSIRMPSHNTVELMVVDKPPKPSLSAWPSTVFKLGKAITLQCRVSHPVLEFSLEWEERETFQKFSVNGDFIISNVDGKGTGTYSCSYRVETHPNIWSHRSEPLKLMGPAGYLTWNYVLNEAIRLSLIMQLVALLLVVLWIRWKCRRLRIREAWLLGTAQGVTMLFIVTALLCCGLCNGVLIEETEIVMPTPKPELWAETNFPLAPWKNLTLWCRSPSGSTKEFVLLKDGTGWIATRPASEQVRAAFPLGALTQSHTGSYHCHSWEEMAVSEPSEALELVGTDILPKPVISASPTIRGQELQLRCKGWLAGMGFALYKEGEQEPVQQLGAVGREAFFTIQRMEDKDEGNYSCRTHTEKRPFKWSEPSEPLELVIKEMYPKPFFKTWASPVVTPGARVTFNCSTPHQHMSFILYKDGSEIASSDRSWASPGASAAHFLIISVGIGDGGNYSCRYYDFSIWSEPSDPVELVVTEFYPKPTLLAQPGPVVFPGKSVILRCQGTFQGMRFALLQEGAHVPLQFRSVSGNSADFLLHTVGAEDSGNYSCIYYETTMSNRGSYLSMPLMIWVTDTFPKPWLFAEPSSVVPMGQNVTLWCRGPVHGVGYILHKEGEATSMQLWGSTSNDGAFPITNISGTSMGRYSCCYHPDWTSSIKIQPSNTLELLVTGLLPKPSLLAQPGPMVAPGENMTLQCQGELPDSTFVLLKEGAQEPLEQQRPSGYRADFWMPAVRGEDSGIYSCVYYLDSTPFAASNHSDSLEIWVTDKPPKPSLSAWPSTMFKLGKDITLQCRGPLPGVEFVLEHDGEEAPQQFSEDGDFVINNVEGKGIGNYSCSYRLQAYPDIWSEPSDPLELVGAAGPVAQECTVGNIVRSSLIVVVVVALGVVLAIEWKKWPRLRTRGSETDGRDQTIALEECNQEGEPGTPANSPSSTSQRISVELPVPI
UniProt P78552: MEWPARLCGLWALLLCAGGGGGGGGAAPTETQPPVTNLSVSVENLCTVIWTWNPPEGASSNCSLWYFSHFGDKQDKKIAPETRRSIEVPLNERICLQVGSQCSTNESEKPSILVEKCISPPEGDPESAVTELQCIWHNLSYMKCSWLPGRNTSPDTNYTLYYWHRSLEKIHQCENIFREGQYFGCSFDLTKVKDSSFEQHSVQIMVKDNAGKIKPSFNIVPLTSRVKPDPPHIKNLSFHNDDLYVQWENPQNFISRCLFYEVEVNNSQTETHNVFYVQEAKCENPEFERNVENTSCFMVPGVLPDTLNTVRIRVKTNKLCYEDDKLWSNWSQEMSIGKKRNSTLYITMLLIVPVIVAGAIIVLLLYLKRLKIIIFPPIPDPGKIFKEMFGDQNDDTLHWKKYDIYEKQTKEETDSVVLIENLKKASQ
UniProt P01871, whole entry, looked up: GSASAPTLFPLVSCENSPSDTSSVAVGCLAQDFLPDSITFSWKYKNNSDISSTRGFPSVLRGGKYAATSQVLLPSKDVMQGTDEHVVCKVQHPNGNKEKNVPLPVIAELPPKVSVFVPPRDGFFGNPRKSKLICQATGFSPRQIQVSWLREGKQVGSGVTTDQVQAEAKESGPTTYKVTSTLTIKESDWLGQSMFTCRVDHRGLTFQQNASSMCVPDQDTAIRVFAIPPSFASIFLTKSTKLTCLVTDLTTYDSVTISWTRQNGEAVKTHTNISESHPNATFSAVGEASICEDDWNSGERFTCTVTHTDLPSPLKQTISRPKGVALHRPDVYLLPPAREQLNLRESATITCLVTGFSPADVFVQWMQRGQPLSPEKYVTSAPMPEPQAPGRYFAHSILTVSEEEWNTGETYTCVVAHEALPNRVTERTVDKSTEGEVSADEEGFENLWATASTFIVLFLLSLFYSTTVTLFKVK
UniProt Q96D96: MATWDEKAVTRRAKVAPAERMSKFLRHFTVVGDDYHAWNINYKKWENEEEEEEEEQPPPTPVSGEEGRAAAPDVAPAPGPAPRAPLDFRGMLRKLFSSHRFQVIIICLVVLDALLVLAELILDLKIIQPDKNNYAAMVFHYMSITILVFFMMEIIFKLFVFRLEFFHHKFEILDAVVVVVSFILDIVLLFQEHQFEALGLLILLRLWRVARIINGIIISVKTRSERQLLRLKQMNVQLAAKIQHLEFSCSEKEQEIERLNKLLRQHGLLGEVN
UniProt Q9NQS7, whole entry, looked up: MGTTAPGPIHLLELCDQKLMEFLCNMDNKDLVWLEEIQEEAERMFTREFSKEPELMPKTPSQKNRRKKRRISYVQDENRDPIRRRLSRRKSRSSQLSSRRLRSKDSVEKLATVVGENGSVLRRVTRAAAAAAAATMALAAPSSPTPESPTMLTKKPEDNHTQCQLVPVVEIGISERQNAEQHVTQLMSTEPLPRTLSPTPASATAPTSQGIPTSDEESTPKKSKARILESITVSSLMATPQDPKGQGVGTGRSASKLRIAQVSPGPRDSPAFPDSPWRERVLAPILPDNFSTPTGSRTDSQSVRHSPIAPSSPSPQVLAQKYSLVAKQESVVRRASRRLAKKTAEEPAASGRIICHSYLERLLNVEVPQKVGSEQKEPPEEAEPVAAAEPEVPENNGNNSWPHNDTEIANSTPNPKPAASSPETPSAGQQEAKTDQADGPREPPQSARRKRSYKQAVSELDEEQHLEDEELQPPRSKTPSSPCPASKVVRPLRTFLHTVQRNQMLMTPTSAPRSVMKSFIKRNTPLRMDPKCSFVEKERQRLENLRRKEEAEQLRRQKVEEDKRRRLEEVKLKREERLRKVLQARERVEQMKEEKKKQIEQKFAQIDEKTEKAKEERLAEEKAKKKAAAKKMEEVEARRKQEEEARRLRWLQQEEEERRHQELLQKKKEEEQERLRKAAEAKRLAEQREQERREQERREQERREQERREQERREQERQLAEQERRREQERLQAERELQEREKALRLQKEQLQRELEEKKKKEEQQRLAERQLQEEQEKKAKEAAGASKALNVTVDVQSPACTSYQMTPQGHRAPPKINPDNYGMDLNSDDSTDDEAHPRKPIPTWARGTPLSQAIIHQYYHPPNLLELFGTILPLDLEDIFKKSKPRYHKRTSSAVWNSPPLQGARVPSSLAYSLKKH
UniProt Q9UNL4, whole entry, looked up: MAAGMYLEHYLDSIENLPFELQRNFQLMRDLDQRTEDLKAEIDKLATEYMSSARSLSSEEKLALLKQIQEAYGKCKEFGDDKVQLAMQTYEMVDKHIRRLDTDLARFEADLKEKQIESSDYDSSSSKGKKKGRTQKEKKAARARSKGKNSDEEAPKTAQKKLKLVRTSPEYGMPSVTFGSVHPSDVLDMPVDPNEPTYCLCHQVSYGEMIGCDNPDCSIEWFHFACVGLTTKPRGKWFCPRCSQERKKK

What was measured:
Assay in all cases: log2 fold change, soluble protein after heating vs DMSO (PISA); higher = thermal stabilisation; K562 lysate, 10 uM; active = over 0.2 and 3.5 SD of the protein, either way, in both replicates (recomputed)
alvocidib = compound: CN1CC[C@H](c2c(O)cc(O)c3c(=O)cc(-c4ccccc4Cl)oc23)[C@H](O)C1 [alvocidib]
Summary of the method: (§1)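 The values are log-two fold changes in thermal stability compared with solvent controls and come from duplicates. They were obtained by TMTpro 16plex LC-MS/MS, with channel sums equalised, on the supernatant after 21,000xg for 90 min. That supernatant came from crude K562 extract at 1 mg/mL protein treated with 10 μM compound for 30 min, heated for 3 min across 48°C-58°C, pooled and brought to 0.5% NP-40 at 4°C.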

[1] = compound: COc1cc2nc(-c3cc(F)ccc3O)nc(N[C@@H]3CNC[C@H]3C(C)(C)O)c2cc1OC
Summary of the method: as §1

lapatinib = compound: CS(=O)(=O)CCNCc1ccc(-c2ccc3ncnc(Nc4ccc(OCc5cccc(F)c5)c(Cl)c4)c3c2)o1 [lapatinib]
Summary of the method: as §1

crizotinib = compound: C[C@@H](Oc1cc(-c2cnn(C3CCNCC3)c2)cnc1N)c1c(Cl)ccc(F)c1Cl [crizotinib]
Summary of the method: as §1

[2] = compound: C[C@H](C1=CC=C(C=C1)C(=O)NC2=C3C=CNC3=NC=C2)N
Summary of the method: as §1

gandotinib = compound: Cc1cc(Nc2cc(CN3CCOCC3)c3nc(C)c(Cc4ccc(Cl)cc4F)n3n2)n[nH]1 [gandotinib]
Summary of the method: as §1

doramapimod = compound: Cc1ccc(-n2nc(C(C)(C)C)cc2NC(=O)Nc2ccc(OCCN3CCOCC3)c3ccccc23)cc1 [doramapimod]
Summary of the method: as §1

[3] = compound: Cc1cccc(CC(=O)N2CCc3c2ccc(-c2cn(C)c4ncnc(N)c24)c3F)n1
Summary of the method: as §1

[4] = compound: CNc1nc(-c2ccc3c(N)n[nH]c3c2)cc(N2C[C@@H](C(=O)NC3CCCCC3)CC[C@H]2C)n1
Summary of the method: as §1

duvelisib = compound: C[C@H](Nc1ncnc2nc[nH]c12)c1cc2cccc(Cl)c2c(=O)n1-c1ccccc1 [duvelisib]
Summary of the method: as §1

Tubastatin A = compound: CN1CCc2c(c3ccccc3n2Cc2ccc(C(=O)NO)cc2)C1 [Tubastatin A]
Summary of the method: as §1

encorafenib = compound: COC(=O)N[C@@H](C)CNc1nccc(-c2cn(C(C)C)nc2-c2cc(Cl)cc(NS(C)(=O)=O)c2F)n1 [encorafenib]
Summary of the method: as §1

[5] = compound: COC(=O)[C@H](CCSC)NC(=O)C1=C(C=C(C=C1)NC[C@H](CS)N)C2=CC=CC=C2
Summary of the method: as §1

pictilisib = compound: CS(=O)(=O)N1CCN(Cc2cc3nc(-c4cccc5[nH]ncc45)nc(N4CCOCC4)c3s2)CC1 [pictilisib]
Summary of the method: as §1

tozasertib = compound: Cc1cc(Nc2cc(N3CCN(C)CC3)nc(Sc3ccc(NC(=O)C4CC4)cc3)n2)n[nH]1 [tozasertib]
Summary of the method: as §1

bafetinib = compound: Cc1ccc(NC(=O)c2ccc(CN3CC[C@H](N(C)C)C3)c(C(F)(F)F)c2)cc1Nc1nccc(-c2cncnc2)n1 [bafetinib]
Summary of the method: as §1

[6] = compound: CNC(=O)C1=CC=CC=C1NC2=NC(=NC=C2Cl)NC3=C(C=C(C=C3)N4CCOCC4)OC
Summary of the method: as §1

alisertib = compound: COc1cc(Nc2ncc3c(n2)-c2ccc(Cl)cc2C(c2c(F)cccc2OC)=NC3)ccc1C(=O)O [alisertib]
Summary of the method: as §1

gefitinib = compound: COc1cc2ncnc(Nc3ccc(F)c(Cl)c3)c2cc1OCCCN1CCOCC1 [gefitinib]
Summary of the method: as §1

defactinib = compound: CNC(=O)c1ccc(Nc2ncc(C(F)(F)F)c(NCc3nccnc3N(C)S(C)(=O)=O)n2)cc1 [defactinib]
Summary of the method: as §1

Measured: log2 fold change

INO80 (UniProt Q9ULG1)
inactive: alvocidib 0.024 | [1] -0.024 | lapatinib 0.125 | crizotinib -0.08 | [2] -0.029 | gandotinib -0.022 | doramapimod 0.067 | [3] -0.084

IFNAR1 (UniProt P17181)
inactive: alvocidib 0.153 | [4] 0.009 | crizotinib -0.06 | [2] 0.027 | duvelisib 0.093 | gandotinib -0.02 | doramapimod 0.074 | [3] -0.095

HUWE1, A0A087X1S3
inactive: alvocidib -0.15 | Tubastatin A -0.117 | [4] -0.164 | encorafenib 0.062 | [5] -0.054 | [1] 0.061 | lapatinib -0.123 | pictilisib 0.081 | [2] -0.03 | duvelisib 0.225 | gandotinib 0.06 | tozasertib -0.167 | bafetinib -0.027 | [3] 0.107

IL17RA (UniProt Q96F46)
inactive: alvocidib -0.135 | [4] -0.041 | encorafenib -0.1 | [5] -0.038 | [1] -0.026 | lapatinib 0.074 | pictilisib 0.032 | crizotinib 0.144 | [2] -0.046 | duvelisib 0.002 | gandotinib -0.06 | tozasertib 0.01 | doramapimod -0.159 | bafetinib -0.165 | [3] -0.074

IMP4 (UniProt Q96G21)
inactive: alvocidib 0.114 | [1] -0.011 | lapatinib -0.03 | crizotinib -0.099 | [2] 0.061 | gandotinib -0.067 | doramapimod 0.097 | [3] 0.078

IGKV3D-7, A0A0C4DH55
inactive: alvocidib 0.032 | Tubastatin A 0.864 | [6] -0.086 | alisertib -0.161 | gefitinib 0.194 | [2] 0.234 | gandotinib 0.141 | [3] 0.459

IGLC3 (UniProt P0DOY3)
inactive: alvocidib -0.051 | [6] 0.23 | [4] -1.76 | alisertib 0 | gefitinib -0.027 | pictilisib 0.35 | [2] 0.31 | duvelisib 0.506 | gandotinib -0.386 | bafetinib -0.135 | [3] 0.439

IDUA (UniProt P35475)
inactive: alvocidib 0.104 | crizotinib -0.125 | [2] 0.014 | gandotinib 0.021 | doramapimod -0.155 | [3] 0.056

HYOU1, A0A494C039
inactive: alvocidib 0.024 | [6] -0.094 | [4] 0.065 | encorafenib -0.05 | [5] 0.007 | [1] -0.004 | lapatinib -0.008 | pictilisib 0.097 | [2] 0.145 | duvelisib 0.023 | gandotinib -0.175 | tozasertib 0.055 | bafetinib -0.133 | [3] 0.125

HTD2 (UniProt P86397)
inactive: alvocidib 0.004 | Tubastatin A -0.079 | defactinib 0.069 | encorafenib 0.178 | [5] -0.302 | alisertib -0.035 | [1] 0.079 | gefitinib 0.053 | lapatinib -0.065 | pictilisib 0.004 | crizotinib 0 | [2] -0.042 | gandotinib -0.11 | tozasertib 0.17 | doramapimod 0.002 | bafetinib -0.142 | [3] -0.006

IGSF1 isoform 4 (UniProt Q8N6C5)
inactive: alvocidib -0.019 | defactinib -0.155 | encorafenib -0.142 | [5] -0.1 | [2] -0.012 | gandotinib 0.034 | tozasertib 0.149 | [3] 0.095

IGHV3-72, A0A4W8ZXM2
inactive: alvocidib -0.128 | Tubastatin A 0.745 | [6] -0.057 | [2] 0.109 | gandotinib -0.053 | [3] 0.409

IL13RA1 (UniProt P78552)
inactive: alvocidib -0.103 | crizotinib 0.034 | [2] -0.01 | gandotinib 0.039 | doramapimod -0.016 | [3] 0.071

IGHM isoform 2 (UniProt P01871)
inactive: alvocidib -0.125 | [4] 0.333 | alisertib -0.073 | gefitinib -0.256 | [2] 0.078 | duvelisib 0.268 | gandotinib -0.048 | [3] 0.635

HVCN1 (UniProt Q96D96)
inactive: alvocidib -0.13 | [6] -0.058 | encorafenib 0.262 | [5] -0.164 | [1] 0.339 | lapatinib 0.233 | pictilisib 0.018 | [2] -0.327 | gandotinib 0.362 | tozasertib 0.222 | bafetinib 0.013 | [3] 0.033

HSPH1 (UniProt Q5TBM3)
inactive: alvocidib -0.111 | Tubastatin A 0.184 | [1] -0.011 | lapatinib 0.012 | pictilisib 0.177 | [2] -0.101 | gandotinib -0.046 | bafetinib 0.273 | [3] 0.16

ICMT (UniProt O60725)
inactive: Tubastatin A -0.037 | defactinib -0.232 | [4] 0.128 | encorafenib 0.031 | [5] 0.029 | alisertib -0.05 | gefitinib -0.15 | pictilisib 0 | crizotinib -0.078 | duvelisib 0.004 | tozasertib 0.07 | doramapimod 0.061 | bafetinib -0.01

INO80B (UniProt Q9C086)
inactive: [6] 0.033 | [4] -0.113 | duvelisib 0.087

Quoted from the listing (2 entries):
ICMT (UniProt O60725)
inactive: Tubastatin A -0.037 | defactinib -0.232 | [4] 0.128 | encorafenib 0.031 | [5] 0.029 | alisertib -0.05 | gefitinib -0.15 | pictilisib 0 | crizotinib -0.078 | duvelisib 0.004 | tozasertib 0.07 | doramapimod 0.061 | bafetinib -0.01

INO80B (UniProt Q9C086)
inactive: [6] 0.033 | [4] -0.113 | duvelisib 0.087

Additional entries follow:

INCENP (UniProt Q9NQS7)
inactive: [4] -0.12 | duvelisib 0.083

ING4 (UniProt Q9UNL4)
inactive: [1] 0.143 | lapatinib -0.096 | pictilisib -0.193 | crizotinib 0.014 | doramapimod 0.033 | bafetinib -0.209

HYOU1 (UniProt J3QL06)
inactive: Tubastatin A 0.03 | [6] 0.013 | defactinib 0.038 | [4] -0.033 | encorafenib -0.002 | [5] 0.212 | alisertib 0.071 | [1] 0.034 | gefitinib -0.175 | lapatinib -0.08 | crizotinib -0.096 | duvelisib 0.1 | tozasertib -0.017 | doramapimod 0.03
